Source: article PMC4942676
Results are given in words; binding and its absence hold for the method and conditions named. In cells and extracts the contact can be indirect. Some entries that bind do so weakly or less than the wild type.

Protein sequences, listed by entry. Tags and fused reporters are not part of them. Residues count along the entry.
UniProt Q9UMX0: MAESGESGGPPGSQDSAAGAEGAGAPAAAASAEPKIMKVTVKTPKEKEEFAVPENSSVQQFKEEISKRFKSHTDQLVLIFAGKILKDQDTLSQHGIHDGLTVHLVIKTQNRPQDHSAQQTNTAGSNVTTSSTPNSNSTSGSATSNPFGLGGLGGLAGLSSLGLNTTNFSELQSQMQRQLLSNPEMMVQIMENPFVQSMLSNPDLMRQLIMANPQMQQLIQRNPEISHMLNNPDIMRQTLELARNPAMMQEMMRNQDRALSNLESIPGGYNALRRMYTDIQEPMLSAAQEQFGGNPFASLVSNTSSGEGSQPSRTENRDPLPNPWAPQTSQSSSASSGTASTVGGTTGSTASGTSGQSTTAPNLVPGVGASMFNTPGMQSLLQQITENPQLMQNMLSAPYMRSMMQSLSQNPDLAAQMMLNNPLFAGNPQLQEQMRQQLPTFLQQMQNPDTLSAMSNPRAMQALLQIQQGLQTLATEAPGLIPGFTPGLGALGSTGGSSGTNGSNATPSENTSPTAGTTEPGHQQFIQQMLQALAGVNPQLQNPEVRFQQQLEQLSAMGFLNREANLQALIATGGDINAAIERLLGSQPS
UniProt P05496, residues 62-136: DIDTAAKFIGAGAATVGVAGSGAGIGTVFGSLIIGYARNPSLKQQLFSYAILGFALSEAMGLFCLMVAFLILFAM

Biological target: Myc-UBQLN1 in rescue cells (UniProt Q9UMX0)
Assay: co-IP; detergent-free cytosolic lysates of rescue cells pulse-labeled 30 min with 35S-methionine; Myc-UBQLN1 immunoprecipitated, ATP5G1-HA released with detergent; autoradiography

binding: binds
Substance: ATP5G1-HA (from UniProt P05496 62-136)
